{
  "sequences": {"note": "Protein sequences, listed by entry. Tags and fused reporters are not part of them.", "UniProt Q0JBA9, entry or part of it": "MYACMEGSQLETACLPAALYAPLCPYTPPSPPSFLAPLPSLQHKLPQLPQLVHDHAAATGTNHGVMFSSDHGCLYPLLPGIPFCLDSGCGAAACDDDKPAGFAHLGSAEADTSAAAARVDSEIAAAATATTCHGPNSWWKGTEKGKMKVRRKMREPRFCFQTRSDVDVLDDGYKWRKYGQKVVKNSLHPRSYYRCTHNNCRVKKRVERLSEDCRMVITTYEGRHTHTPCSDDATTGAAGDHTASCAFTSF"},
  "source": "paper PMC7819943",
  "about": "“Rice protein-binding microarrays: a tool to detect cis-acting elements near promoter regions in rice”",
  "note": "The list shows a part of the results.",
  "data": [
    {"molecular_target": "OsWRKY34 (Oryza sativa, UniProt Q0JBA9 1-250)", "test": "protein-binding microarray (RPBM); PBS, 2% BSA, 51.3 ng/ul salmon testes DNA, 50 uM zinc acetate, 200 nM TF, 25 C, 1 h; high values mean tight binding", "settings": "protein: recombinant; tags: N-terminal polyhistidine and DsRed monomer fusion (pET32a); label: CyDye5-dUTP incorporated in the synthesized complementary strand; 3' TTTTT single-stranded linker to array surface; dsDNA, one strand shown", "how_it_was_run": "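Polyhistidine-tagged DsRed fusions of transcription factors, joined at the N-terminus, were expressed in E. coli BL21-CodonPlus and isolated on Ni–NTA. They were incubated at 200 nM for 1 h at 25 °C on a custom Agilent array, double-stranded and BSA-blocked, in PBS with 2% BSA, salmon testes DNA and 50 µM zinc acetate. The binding signal is per-feature fluorescence intensity (arbitrary units) read on an Axon 4000B scanner after washing.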", "values": [
      {"sequence": "GATCTCTCCGGGACTATCTATCTCCATTTCTCTCCAAGGCCGGAGTCACCTAGTGCAG", "binding signal": "9560 fluorescence intensity (a.u.)"},
      {"sequence": "GAGTTTATTTTTTACATGGTCGGTTCCTGTGAGTTCCTAACGGAGTCACCTAGTGCAG", "binding signal": "9420 fluorescence intensity (a.u.)"},
      {"sequence": "AGCACCGGTACAGTTTGACCTTTTTTTTTTGCACTACACTCGGAGTCACCTAGTGCAG", "binding signal": "11700 fluorescence intensity (a.u.)"},
      {"sequence": "AACTGGATATTCCCATTCAATACCACCACTCGTCGTCCCGCGGAGTCACCTAGTGCAG", "binding signal": "10100 fluorescence intensity (a.u.)"},
      {"sequence": "ACCACTTCTACATGTCTTCTTCTTGTCTCGATGGAGTGGACGGAGTCACCTAGTGCAG", "binding signal": "8580 fluorescence intensity (a.u.)"},
      {"sequence": "TTTCCTTCTGCTAATGTTTGTTTTGACTTGTCCATATCTTCGGAGTCACCTAGTGCAG", "binding signal": "12400 fluorescence intensity (a.u.)"},
      {"sequence": "CCCTGGTTTCCGTGTCCAACGTCTGACCATTCGTTTTATTCGGAGTCACCTAGTGCAG", "binding signal": "9300 fluorescence intensity (a.u.)"},
      {"sequence": "AACTCTTTATATTCTACTGATCCTATGTGGGTTCCAACAACGGAGTCACCTAGTGCAG", "binding signal": "8240 fluorescence intensity (a.u.)"},
      {"sequence": "TACTTGTGTCCGCCTCGCCGCGAGCCCACGAACGCGACCACGGAGTCACCTAGTGCAG", "binding signal": "8370 fluorescence intensity (a.u.)"},
      {"sequence": "CCAACAGGGCGGAACATGATTGCGTTTTTGAGGTTTTCTTCGGAGTCACCTAGTGCAG", "binding signal": "8170 fluorescence intensity (a.u.)"},
      {"sequence": "CTACTCAGCCATTTATTGTTTACCATATGCCATTGATAACCGGAGTCACCTAGTGCAG", "binding signal": "9020 fluorescence intensity (a.u.)"},
      {"sequence": "TAGTCAAACGTTGAAAAAAAAAGTCAACGGCGTCACACATCGGAGTCACCTAGTGCAG", "binding signal": "20900 fluorescence intensity (a.u.)"},
      {"sequence": "TTACAGCGCCATATCCTATATATCGTACCTACGACCAAAACGGAGTCACCTAGTGCAG", "binding signal": "8090 fluorescence intensity (a.u.)"},
      {"sequence": "CATTTGCTGAGTTCTAATCATTCAGGCAGATGCCTCTTTCCGGAGTCACCTAGTGCAG", "binding signal": "8580 fluorescence intensity (a.u.)"},
      {"sequence": "TTCTCATATTTCTATTATCGTTGCCCACCTAGTGTTTCTTCGGAGTCACCTAGTGCAG", "binding signal": "8880 fluorescence intensity (a.u.)"},
      {"sequence": "TCGTGCCGGTTGGTTGGTGCTTTGGCCCCTGTCTCTCCTTCGGAGTCACCTAGTGCAG", "binding signal": "10200 fluorescence intensity (a.u.)"},
      {"sequence": "ATCATCAACAGCTCAGTTCATCCGTGCCGTGTTAATTTAGCGGAGTCACCTAGTGCAG", "binding signal": "9700 fluorescence intensity (a.u.)"},
      {"sequence": "GCGAAATCCGGCCTGCACCGTTATACCTTACCTGGTCCCACGGAGTCACCTAGTGCAG", "binding signal": "8950 fluorescence intensity (a.u.)"},
      {"sequence": "GTTCTTCTTGGTTCTGGTTGGTTAGCGGAGAGCAGCAGTGCGGAGTCACCTAGTGCAG", "binding signal": "9060 fluorescence intensity (a.u.)"},
      {"sequence": "ATTTTCCTTGTTTTGATGTTTTCTGGTTGGGGAAGGGTTACGGAGTCACCTAGTGCAG", "binding signal": "24600 fluorescence intensity (a.u.)"},
      {"sequence": "AACCCCACGTGGCAGCCTCTGTGTCTATGGGCCCCACCTCCGGAGTCACCTAGTGCAG", "binding signal": "8560 fluorescence intensity (a.u.)"},
      {"sequence": "CATTTTCTTGTGAATCGCTGACCGTCTAGACTCAAGCTTTCGGAGTCACCTAGTGCAG", "binding signal": "9490 fluorescence intensity (a.u.)"},
      {"sequence": "AACCTCCACACACCCGCTCATACTACAAGCTAGGTAATCACGGAGTCACCTAGTGCAG", "binding signal": "8040 fluorescence intensity (a.u.)"},
      {"sequence": "CATATATCCAATTCATTAGACGGTTGTATCATATCTTCACCGGAGTCACCTAGTGCAG", "binding signal": "10600 fluorescence intensity (a.u.)"},
      {"sequence": "TGCTCGCTCGTTTGATCCATCCTAGTTGCTGAGACGTTTCCGGAGTCACCTAGTGCAG", "binding signal": "13200 fluorescence intensity (a.u.)"},
      {"sequence": "CGCGCGGATTTGCCGTTACCACCTTCTGCCTGCCTGCGCCCGGAGTCACCTAGTGCAG", "binding signal": "10100 fluorescence intensity (a.u.)"},
      {"sequence": "TGGCGGATTGATCTGGAGGTGGGCTTGTTGGGGTTGCTGTCGGAGTCACCTAGTGCAG", "binding signal": "18200 fluorescence intensity (a.u.)"},
      {"sequence": "TGTTGCCATTCTCATCTACAAGTGCTGCAAGCTGCGCATGCGGAGTCACCTAGTGCAG", "binding signal": "8240 fluorescence intensity (a.u.)"},
      {"sequence": "CCACATCGCCCCGCCCTGCCCTTTAAATATCCTTTGGCCCCGGAGTCACCTAGTGCAG", "binding signal": "9390 fluorescence intensity (a.u.)"},
      {"sequence": "CGATAAGTGATAACTCCGCCATTTTCGCAGCCTCGCTCCACGGAGTCACCTAGTGCAG", "binding signal": "9280 fluorescence intensity (a.u.)"},
      {"sequence": "GTAGTCCATTGTAAATCACTAAATTAGTGTGGTCATCGCACGGAGTCACCTAGTGCAG", "binding signal": "8950 fluorescence intensity (a.u.)"},
      {"sequence": "ATTAATCATATGGTAATTACTTGCATCGTTTCTGTGCCACCGGAGTCACCTAGTGCAG", "binding signal": "8350 fluorescence intensity (a.u.)"},
      {"sequence": "CAACAACATCATCATCGCTCACATCCGCATCTCCACACAACGGAGTCACCTAGTGCAG", "binding signal": "13500 fluorescence intensity (a.u.)"},
      {"sequence": "GTTTCATATTTTACGCTTTGACTTTTGCAAAATCAATTTTCGGAGTCACCTAGTGCAG", "binding signal": "13500 fluorescence intensity (a.u.)"},
      {"sequence": "TGATTTGCGCGAGGGTTTGGTTTGGTTTGGTTTGAGTCGACGGAGTCACCTAGTGCAG", "binding signal": "19200 fluorescence intensity (a.u.)"},
      {"sequence": "ATTTCTTCGTTATAATTTAATCTTACTTTTCAACTTAAAACGGAGTCACCTAGTGCAG", "binding signal": "8790 fluorescence intensity (a.u.)"},
      {"sequence": "CTACCCACACCTCAACAGTTTTTCCTGTTCCACCCTTCTTCGGAGTCACCTAGTGCAG", "binding signal": "10800 fluorescence intensity (a.u.)"},
      {"sequence": "CTCGCTCCGCTTCCATCCATATTCCACCGCATCGCGCGCGCGGAGTCACCTAGTGCAG", "binding signal": "9710 fluorescence intensity (a.u.)"},
      {"sequence": "GCTGCTTCTTACTTCTGGTCAAACACCATCAATGCATTTTCGGAGTCACCTAGTGCAG", "binding signal": "8740 fluorescence intensity (a.u.)"},
      {"sequence": "TTCTCTTCGACTTTTCTCCTCCACAGCCGCCAAGCTGACGCGGAGTCACCTAGTGCAG", "binding signal": "9700 fluorescence intensity (a.u.)"},
      {"sequence": "ACTTGAGACGATCGAACTGCTAATTGCAGCTCATAATTTTCGGAGTCACCTAGTGCAG", "binding signal": "8150 fluorescence intensity (a.u.)"},
      {"sequence": "TTGCTCGGGGCGATTGGGCCATGCGAGGTGCGGGATTTGACGGAGTCACCTAGTGCAG", "binding signal": "8090 fluorescence intensity (a.u.)"}
    ]}
  ]
}
